# Data as given in PubChem BioAssay AID1259254 (NCATS, 2017)
# Test: 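Genome-wide screen for genes that prevent DNA re-replication in cancer cells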 (primary screen)
# Cell system: human HCT116 colorectal cancer cells
# Knock-down reagent: single siRNA against human genes
# Duration: 3 days
# Measured: 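Nuclei stained with Hoechst and imaged; cell-cycle phase assigned by DNA content; G2 share scaled per plate, non-targeting siRNA 0%, GMNN siRNA 100%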
# Reading the numbers: G2 robust z-score and G2 cells, % of GMNN control: higher = more G2 cells, more excess DNA replication; raw share of cells in G2: higher = larger share of cells with G2 DNA content
# Active means: 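Active siRNAs have a G2 robust z of 5 or more median absolute deviations over the median, which in these data means about 38% or higher of GMNN control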
# The deposit covers about 59,000 reagents; below is a random part of them. Over the whole deposit, about 1,550 (2.6%) got an active call. 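G2 share is only a proxy for re-replication; each gene was hit by three separate siRNAs, and active genes were retested.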 The raw values are shown without normalisation. Unmarked entries are inactive. Reagents against one gene are numbered here. Not given: the amount of reagent.
gene knocked down,reagent,G2 robust z-score,"G2 cells, % of GMNN control",raw share of cells in G2 (%)
CRAT,1,3.72,29.1,15.4
CRAT,2,1.15,11,9.02
CRAT,3,5.95 (active),44.9,19.6
UQCRBP1,1,-0.768,-2.44,2.71
UQCRBP1,2,0.317,5.2,5.14
UQCRBP1,3,0.293,5.03,4.61
SPDYE2B,1,-0.719,-2.09,2.41
SPDYE2B,2,2.05,17.4,10.3
SPDYE2B,3,0.287,4.99,5.31
FBXL21P,1,9.34 (active),68.7,30.2
FBXL21P,2,0.746,8.22,7.5
FBXL21P,3,0.433,6.01,5.4
RFLNB,1,-0.578,-1.1,3.61
RFLNB,2,0.751,8.25,6.87
RFLNB,3,0.175,4.2,5.88
ZNF425,1,-0.59,-1.19,2.68
ZNF425,2,-0.619,-1.39,2.68
ZNF425,3,1.48,13.4,8.22
LOC81787 (retired record),1,-0.837,-2.92,2.59
LOC81787 (retired record),2,-0.707,-2.01,1.8
LOC81787 (retired record),3,1.37,12.6,8.31
PATE1,1,0.368,5.56,6.74
PATE1,2,2.47,20.3,15.7
PATE1,3,-0.704,-1.99,3.87
CUEDC1,1,0.471,6.28,6.1
CUEDC1,2,-0.496,-0.524,3.31
CUEDC1,3,-0.633,-1.49,4.17
CETP,1,0.26,4.79,6.67
CETP,2,0.0198,3.11,6.13
CETP,3,0.0873,3.58,5.33
C1orf198,1,-0.977,-3.91,2.43
C1orf198,2,-0.275,1.03,3.32
C1orf198,3,-0.602,-1.27,2.52
SHROOM2,1,1.94,16.6,11.3
SHROOM2,2,-0.146,1.94,5.44
SHROOM2,3,0.871,9.1,7.93
ZNF618,1,1.58,14,7.92
ZNF618,2,-0.938,-3.63,1.91
ZNF618,3,-0.282,0.98,3.87
VWF,1,3.52,27.7,14.5
VWF,2,-0.825,-2.84,3.52
VWF,3,-0.123,2.11,3.87
NUS1,1,0.546,6.81,6.82
NUS1,2,0.474,6.3,5.21
NUS1,3,-0.353,0.487,1.96
WDR86,1,-0.00456,2.94,4.54
WDR86,2,0.306,5.12,6.25
WDR86,3,0.132,3.89,5.32
PPM1G,1,-1.1,-4.78,2.86
PPM1G,2,0.607,7.24,5.68
PPM1G,3,3.42,27,13.6
TNFSF11,1,-0.709,-2.02,3.62
TNFSF11,2,1.02,10.2,8.83
TNFSF11,3,-1.04,-4.33,3.16
CXCR1,1,-0.582,-1.13,5.44
CXCR1,2,-0.203,1.54,5.06
CXCR1,3,1.16,11.1,6.68
IL26,1,3.77,29.5,15.9
IL26,2,1.68,14.8,10.3
IL26,3,1.94,16.6,8.45
RELN,1,0.479,6.34,7.77
RELN,2,0.351,5.44,6.83
RELN,3,-0.349,0.513,4.1
EDRF1,1,3.29,26.1,14.2
EDRF1,2,-0.947,-3.7,2.34
EDRF1,3,-0.0897,2.34,4.12
HYAL2,1,-0.579,-1.11,4.31
HYAL2,2,3.53,27.8,15
HYAL2,3,3.15,25.1,16
